What is called AC50 is the midpoint of the concentration-response curve, whichever way the signal moves.

The assay can be described thus: qHTS Assay for Modulators of Lamin A Splicing. Particulars: HeLa LMNA splicing GFP/RFP minigene ratio, 48 h. The method, boiled down:
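S3 HeLa cells stably expressing lamin A-EGFP splicing minigene plus DsRed2, 600 cells/well, 48 h compound exposure at 37C. Laser-scanning cytometry; analysed as GFP (500-530 nm)/RFP (575-640 nm) total intensity ratio; 0.5% DMSO vehicle.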
A general note: In qHTS, concentration-response curves come from the screen itself.

The mark [1] stands for this setting: measured here: GFP splicing reporter channel.
The mark [2] stands for this setting: measured here: RFP viability control channel.

This is one part of the list. Further columns of the screen follow, without active or inactive calls. The list favours compounds with an active or inconclusive main result. The note in brackets gives the kind of curve behind each potency; many fits are weak.

For the compound `CCOC(=O)c1c(C)[nH]c(CCC(=O)Nc2ccc(Cl)cc2C)c1C`, the AC50 by setting is: under setting [1], 0.0224 µM [rising, full curve, poor fit]; under setting [2], 35.5 µM [rising, partial curve, poor fit].
On to `COc1ccc(-c2nc3cnc(Nc4cccc(OC)c4)nc3n(Cc3cccs3)c2=O)cc1`, for which the AC50 reads like this: under setting [1], 11.2 µM [falling, partial curve]; under setting [2], 11.2 µM [falling, partial curve].
As to `N#C/C(=C\c1ccc(Sc2ccccc2)o1)c1nc2ccccc2[nH]1`, the AC50 is, setting by setting: under setting [1], 1.41 µM [rising, full curve, poor fit]; under setting [2], 7.94 µM [rising, partial curve, poor fit].
Regarding `O=C(NCCCN1CCOCC1)c1csc2c1CCCC2`, the half-maximal activity concentration (AC50) under setting [1] is 0.355 µM [falling, full curve, poor fit] and the AC50 under setting [2] is 0.501 µM [falling, full curve, poor fit].
`Cc1noc(C(=O)N2CC3(C)CC2CC(C)(C)C3)c1Cl` (stereo unspecified): the AC50 under setting [2] was 35.5 µM [rising, single point].
For `O=C(Nc1cccc(Br)c1)c1ccc(Cl)c(S(=O)(=O)N2CCOCC2)c1`, the concentration at half-maximal activity (AC50) under setting [1] is 7.08 µM [rising, partial curve] and the half-maximal activity concentration (AC50) under setting [2] was 3.55 µM [rising, full curve].
As for `CCOc1ccc(NC(=O)c2cc3c(=O)n(Cc4cccs4)ccc3nc2C)cc1`, under setting [2], the AC50 is 6.31 µM [falling, single point].
On the same count and under the same terms, the same measure for `Cc1sc(NC(=O)CN2CCOCC2)nc1-c1ccc2c(c1)CCN2S(=O)(=O)c1ccccc1`: 2.82 µM [rising, full curve].
`CCN1C(=O)c2cccc3c(Cl)ccc(c23)C1=O`: the AC50 under setting [1] was 22.4 µM [rising, partial curve, poor fit] and the AC50 under setting [2] is 0.112 µM [rising, partial curve, poor fit].
As to `O=C(N/N=C/c1sc(N2CCCCC2)nc1-c1cccs1)c1cccnc1`, the AC50 under setting [2] is 15.8 µM [rising, partial curve].
With `CCN1CCN(C(=O)N2CCOCC2)CC1`, the AC50 under setting [1] is 0.0112 µM [falling, full curve, poor fit].
With `O=C(COC(=O)c1cccnc1Cl)Nc1ccccc1OC(F)F`, the AC50 under setting [2] is 0.0355 µM [rising, full curve, poor fit].
In the case of `C=CCn1c(SCC(=O)NC23CC4CC(CC(C4)C2)C3)nc2cc(C(=O)O)ccc2c1=O`, the half-maximal activity concentration (AC50) was 0.0224 µM [falling, full curve] under setting [1] and 6.31 µM [falling, partial curve, poor fit] under setting [2].
Consider `Cc1nc2cc(NC(=O)COc3ccc(C#N)cc3)ccc2n1-c1ccccc1`, for which, under setting [2], the AC50 is 14.1 µM [rising, partial curve].
Take `COc1ccccc1N1CCN(S(=O)(=O)c2ccc3nc(-c4ccccc4)[nH]c3c2)CC1`: the AC50 under setting [1] is 12.6 µM [rising, single point] and the AC50 under setting [2] was 22.4 µM [rising, partial curve].
Consider `CC1(C)CC(=O)C2=C(C1)c1c(ccc3ccccc13)NC2c1ccc(Br)o1` (stereo unspecified), for which the AC50 is 12.6 µM [rising, single point] under setting [1] and 12.6 µM [rising, single point] under setting [2].
Consider `O=S(=O)(NCCC1=CCCCC1)c1cccc2nsnc12`, for which the concentration at half-maximal activity (AC50) runs as follows: under setting [1], 7.08 µM [rising, full curve, poor fit]; under setting [2], 10 µM [rising, partial curve, poor fit].
Take `Cc1ccc(S(=O)(=O)N(C)C)cc1NC(=O)COC(=O)/C=C/c1cnc2ccccc2n1`: under setting [2], the AC50 was 0.316 µM [rising, single point].
For `CCN(CC)S(=O)(=O)c1ccc(NS(=O)(=O)c2ccc(C)c(C)c2)cc1`, the AC50 under setting [2] is 31.6 µM [rising, single point].
Take `Cc1ccc(-c2csc(NC(=O)CSc3nc4ccccc4c(=O)n3CCCN(C)C)n2)cc1`: the AC50 was 35.5 µM [rising, single point] under setting [1] and 22.4 µM [rising, single point] under setting [2].
As for `Cc1ccc(C(=O)Nc2ccccc2C(=O)NC(C(=O)O)C(C)C)cc1` (stereo unspecified), the AC50 under setting [2] is 0.0708 µM [falling, full curve, poor fit].
Consider `COc1ccc2nc(/C(C#N)=C\c3ccc(Oc4ccc([N+](=O)[O-])cn4)cc3)[nH]c2c1`, for which the AC50 under setting [1] is 1.41 µM [rising, full curve, poor fit].
Turning to `CCc1c(C)sc2c1CCN(C(=O)Nc1ccc(F)c(Cl)c1)C2c1ccc(F)cc1` (stereo unspecified), under setting [2], the AC50 is 1.58 µM [rising, partial curve].
For `CCCCCSc1nnc(-c2cc(Br)ccc2N)c(=O)[nH]1`, the AC50 by setting is: under setting [1], 15.8 µM [rising, partial curve]; under setting [2], 17.8 µM [rising, single point].
Regarding `COc1ccc(-c2cn3nc(SCC(=O)Nc4ccc(C)c(Cl)c4)ccc3n2)cc1`, the AC50 was 0.355 µM [rising, full curve, poor fit] under setting [1] and 0.1 µM [rising, partial curve] under setting [2].
For the compound `COc1cc(SC)ccc1C(=O)NCCOc1ccc(C)c(C)c1`, the AC50 under setting [2] is 25.1 µM [rising, single point].
In the case of `Cc1ccccc1C(=O)OCCN(C)Cc1ccccc1`, under setting [1], the half-maximal activity concentration (AC50) was 0.447 µM [rising, full curve, poor fit].
Consider `Cc1ccc(NC(=O)c2ccccc2NS(=O)(=O)c2ccc(Cl)s2)cc1`, for which, under setting [2], the AC50 was 20 µM [rising, single point].
Still for that read-out and setting: the same measure for `COCCNC(=O)c1c[nH]c2ccc(OC)cc2c1=O`: 12.6 µM [rising, single point].
For the compound `CCn1c(SCC(=O)c2ccccc2)nc2ccccc2c1=O`, the AC50 is, setting by setting: under setting [1], 0.158 µM [falling, full curve, poor fit]; under setting [2], 1.58 µM [falling, partial curve, poor fit].
Consider `O=C(Cn1c(=O)sc2ccccc21)Nc1ccc(S(=O)(=O)N2CCCCC2)cc1`, for which the concentration at half-maximal activity (AC50) under setting [2] is 11.2 µM [rising, single point].
In the case of `COC(=O)c1oc2ccc(Br)cc2c1-n1cccc1`, the AC50 under setting [1] was 35.5 µM [rising, single point].
Turning to `Cc1[nH]c2ccccc2c1C(=O)COC(=O)c1c(-c2ccccc2Cl)noc1C`, the AC50 under setting [2] was 25.1 µM [rising, single point].
`COc1ccc(N2CCN(C(=O)c3cccc(NC(=O)c4nsc5ccccc45)c3)CC2)cc1`: the AC50 is 8.91 µM [falling, partial curve, poor fit] under setting [1] and 7.08 µM [falling, full curve] under setting [2].
`O=C(Nc1ccc2nc(SCC(=O)N3CCCc4ccccc43)sc2c1)c1ccccc1`: under setting [1], the AC50 was 5.01 µM [falling, partial curve].
Take `CC(C)c1ccccc1NC(=O)COc1ccc2c(=O)c(Oc3ccc4ccccc4c3)coc2c1`: the AC50 reads like this: under setting [1], 8.91 µM [rising, partial curve]; under setting [2], 14.1 µM [rising, partial curve].
Consider `CCOc1ccc(S(=O)(=O)Nc2cc(OC)ccc2OC)cc1`, for which, under setting [2], the AC50 was 5.62 µM [rising, partial curve, poor fit].
On to `O=C(CN1CCN(c2cccc(Cl)c2)CC1)Nc1ccc([N+](=O)[O-])cc1C(=O)Nc1ccccc1F`, for which the AC50 under setting [2] is 4.47 µM [rising, single point].
Consider `COc1ccccc1N1CCN(CCCCNS(=O)(=O)c2cccc3c(N(C)C)cccc23)CC1`, for which the AC50 is, setting by setting: under setting [1], 12.6 µM [falling, partial curve, poor fit]; under setting [2], 11.2 µM [falling, partial curve, poor fit].
For the compound `Cc1cc(CC(=O)O)n(C)c1C(=O)c1ccc(Cl)cc1`, the AC50 reads like this: under setting [1], 0.0794 µM [falling, full curve, poor fit]; under setting [2], 0.0891 µM [falling, full curve, poor fit].
Turning to `NCCNC(=O)c1ncsc1-c1cccc(F)c1`, the concentration at half-maximal activity (AC50) is, setting by setting: under setting [1], 0.00562 µM [falling, full curve, poor fit]; under setting [2], 0.00631 µM [falling, full curve, poor fit].
As for `O=C(COCc1cc(-c2ccc3c(c2)OCO3)on1)N1CCN(c2ccccc2)CC1`, the AC50 reads like this: under setting [1], 28.2 µM [rising, single point]; under setting [2], 15.8 µM [rising, partial curve].
For `COc1cc(CC(=O)N2CCc3ccccc32)cc(OC)c1OC`, the AC50 was 35.5 µM [rising, single point] under setting [1] and 35.5 µM [rising, single point] under setting [2].
In the case of `CCC(CC)C(=O)Nc1nc2c(s1)CC(C)CC2` (stereo unspecified), the concentration at half-maximal activity (AC50) under setting [1] was 1.26 µM [rising, full curve, poor fit].
For the compound `N#C/C(=C/c1cn(-c2ccccc2)nc1-c1cccc(OCc2ccc(F)cc2)c1)C(=O)NCCCn1ccnc1`, the AC50 was 35.5 µM [falling, single point] under setting [1] and 35.5 µM [falling, single point] under setting [2].
Take `COc1cccc(C2=CC(c3cccs3)n3nnnc3N2)c1` (stereo unspecified): the AC50 under setting [2] was 4.47 µM [rising, full curve].
Take `O=C(O)C1=CCCNC1`: the AC50 under setting [2] is 0.000794 µM [falling, full curve, poor fit].
`Nc1nc(N)c2cc(Sc3ccc4ccccc4c3)ccc2n1`: the AC50 was 15.8 µM [falling, partial curve] under setting [1] and 35.5 µM [falling, partial curve, poor fit] under setting [2].
With `Cc1cc2ccccn2c1C(C[N+](=O)[O-])c1ccc(N(C)C)cc1` (stereo unspecified), the AC50 under setting [1] was 0.00447 µM [rising, full curve, poor fit].
As to `O=C(Nc1cccnc1)c1cccc(S(=O)(=O)N2CCCCC2)c1`, the AC50 reads like this: under setting [1], 0.112 µM [rising, partial curve]; under setting [2], 0.0447 µM [rising, partial curve].
On to `CC1CCN(CCC(=O)N2CCCc3c2c(=O)oc2ccc(O)cc32)CC1`, for which the AC50 under setting [2] is 35.5 µM [rising, single point].
Still for that read-out and setting: with `O=C(Nc1ccc2c(c1)OCO2)N1CCN(c2ncc(C(F)(F)F)cc2Cl)CC1` the figure was 17.8 µM [rising, single point].

The record behind these values is PubChem BioAssay AID1487 (National Center for Advancing Translational Sciences (NCATS), 2009).
